From publication PMC11063629
Results are given in words; binding and its absence hold for the method and conditions named. In cells and extracts the contact can be indirect. Some binding calls cover weakened binding; strength is not graded here. Sequences can lack the tags named with a protein.

Protein sequences, listed by entry. Tags and fused reporters are not part of them.
UniProt Q9P289: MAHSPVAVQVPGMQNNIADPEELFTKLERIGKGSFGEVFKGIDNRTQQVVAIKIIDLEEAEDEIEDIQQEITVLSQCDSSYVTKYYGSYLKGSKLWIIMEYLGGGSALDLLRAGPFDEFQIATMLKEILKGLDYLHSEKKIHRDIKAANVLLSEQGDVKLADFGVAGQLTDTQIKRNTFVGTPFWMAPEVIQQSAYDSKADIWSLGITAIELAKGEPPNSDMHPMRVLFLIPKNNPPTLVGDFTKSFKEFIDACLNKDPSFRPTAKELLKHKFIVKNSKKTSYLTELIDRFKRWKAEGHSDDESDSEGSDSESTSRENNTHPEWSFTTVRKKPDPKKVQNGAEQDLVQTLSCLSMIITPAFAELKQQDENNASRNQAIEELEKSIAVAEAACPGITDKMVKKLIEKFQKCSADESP
UniProt Q9BUL8: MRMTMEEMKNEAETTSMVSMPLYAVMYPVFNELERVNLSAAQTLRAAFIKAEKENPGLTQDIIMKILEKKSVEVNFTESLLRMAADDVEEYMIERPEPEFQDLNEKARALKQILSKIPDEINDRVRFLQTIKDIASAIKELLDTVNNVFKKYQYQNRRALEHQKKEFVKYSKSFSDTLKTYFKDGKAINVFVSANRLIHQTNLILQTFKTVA
UniProt O00506: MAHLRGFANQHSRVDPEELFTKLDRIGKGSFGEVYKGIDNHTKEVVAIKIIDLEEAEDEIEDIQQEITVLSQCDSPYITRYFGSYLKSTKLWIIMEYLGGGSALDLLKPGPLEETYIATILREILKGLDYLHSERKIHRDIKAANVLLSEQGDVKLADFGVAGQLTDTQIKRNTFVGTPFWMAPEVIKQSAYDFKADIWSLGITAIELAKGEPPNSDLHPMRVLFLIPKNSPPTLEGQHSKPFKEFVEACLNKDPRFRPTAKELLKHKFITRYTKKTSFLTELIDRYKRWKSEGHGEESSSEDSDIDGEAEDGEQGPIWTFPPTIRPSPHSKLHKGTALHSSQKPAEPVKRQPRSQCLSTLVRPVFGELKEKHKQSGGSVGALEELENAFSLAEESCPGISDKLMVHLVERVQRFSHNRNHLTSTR

These substances were tested against T1, C4orf19-V5 (human) (UniProt Q8IY42) (assay: co-IP; anti-V5 immunoprecipitation from lysates of MCF10A cells expressing C4orf19-V5 and 3×FLAG-tagged candidates; lysis buffer 50 mM HEPES, 150 mM NaCl, 1.5 mM MgCl2, 1 mM EGTA, 1% Triton X-100, 10% glycerol, pH 7.4; overnight at 4°C with protein-A or protein-G-sepharose; western blot).
T1 sequence: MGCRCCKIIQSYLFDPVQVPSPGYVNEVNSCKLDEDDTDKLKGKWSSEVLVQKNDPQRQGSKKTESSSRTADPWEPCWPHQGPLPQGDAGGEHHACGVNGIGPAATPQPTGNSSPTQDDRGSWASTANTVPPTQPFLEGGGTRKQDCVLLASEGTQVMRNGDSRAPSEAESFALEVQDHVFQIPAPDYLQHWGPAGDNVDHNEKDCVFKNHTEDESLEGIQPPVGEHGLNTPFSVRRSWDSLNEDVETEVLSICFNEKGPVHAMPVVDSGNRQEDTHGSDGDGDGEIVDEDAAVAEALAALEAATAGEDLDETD
“3×FLAG-STK26 (from UniProt Q9P289 1-416) (enzyme)” was tested, and the binding was “binds”. In the case of “3×FLAG-PDCD10 (from UniProt Q9BUL8 1-212)”, the binding is reported as “binds”. With “3×FLAG-STK25 (from UniProt O00506 1-426) (enzyme)” the binding was “binds”.
